From paper doi:10.1101/2023.05.02.538687
Construct, isoform or probe ends are uncertain for at least one entry. At least one verdict rests on a figure or table, not on a statement of the authors.

Chains of the proteins cited; added tags and fusions are not shown. Lines headed by an entry give the natural chain unless they say otherwise; changes in a name come on top.
UniProt P23771: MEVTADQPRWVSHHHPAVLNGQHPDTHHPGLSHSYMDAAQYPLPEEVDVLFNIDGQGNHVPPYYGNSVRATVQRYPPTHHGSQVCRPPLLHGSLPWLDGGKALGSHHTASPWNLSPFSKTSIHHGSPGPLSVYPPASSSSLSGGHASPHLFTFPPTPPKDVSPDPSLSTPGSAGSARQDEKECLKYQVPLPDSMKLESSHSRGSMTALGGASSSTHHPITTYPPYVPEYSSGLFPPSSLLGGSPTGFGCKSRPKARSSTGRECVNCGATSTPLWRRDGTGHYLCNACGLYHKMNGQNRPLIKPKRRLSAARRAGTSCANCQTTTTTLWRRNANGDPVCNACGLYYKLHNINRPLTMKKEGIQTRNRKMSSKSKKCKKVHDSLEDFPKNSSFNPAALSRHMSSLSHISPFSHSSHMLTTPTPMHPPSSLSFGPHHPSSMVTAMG

Biological target: GATA3 WT (UniProt P23771)
Assay: EMSA
Details: 10 mM MgCl2, 1 uM DNA; residues 1-443

“AATGTCCATCTGATAAGACG (double strand) [GATA-DNA]”: binds.
